# Assay results published in PubChem BioAssay (NCATS).
# Chains of the proteins cited; added tags and fusions are not shown. Lines headed by an entry give the natural chain unless they say otherwise; changes in a name come on top.
# UniProt A8B2U2: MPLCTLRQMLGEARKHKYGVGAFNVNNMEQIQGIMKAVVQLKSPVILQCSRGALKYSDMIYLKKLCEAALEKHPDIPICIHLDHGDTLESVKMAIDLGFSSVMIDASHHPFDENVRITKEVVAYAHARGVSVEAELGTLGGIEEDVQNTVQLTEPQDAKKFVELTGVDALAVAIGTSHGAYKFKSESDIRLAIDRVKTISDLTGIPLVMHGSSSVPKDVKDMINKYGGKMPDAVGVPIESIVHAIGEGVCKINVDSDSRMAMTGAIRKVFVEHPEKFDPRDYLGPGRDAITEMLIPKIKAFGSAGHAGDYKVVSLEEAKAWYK
# UniProt P11473: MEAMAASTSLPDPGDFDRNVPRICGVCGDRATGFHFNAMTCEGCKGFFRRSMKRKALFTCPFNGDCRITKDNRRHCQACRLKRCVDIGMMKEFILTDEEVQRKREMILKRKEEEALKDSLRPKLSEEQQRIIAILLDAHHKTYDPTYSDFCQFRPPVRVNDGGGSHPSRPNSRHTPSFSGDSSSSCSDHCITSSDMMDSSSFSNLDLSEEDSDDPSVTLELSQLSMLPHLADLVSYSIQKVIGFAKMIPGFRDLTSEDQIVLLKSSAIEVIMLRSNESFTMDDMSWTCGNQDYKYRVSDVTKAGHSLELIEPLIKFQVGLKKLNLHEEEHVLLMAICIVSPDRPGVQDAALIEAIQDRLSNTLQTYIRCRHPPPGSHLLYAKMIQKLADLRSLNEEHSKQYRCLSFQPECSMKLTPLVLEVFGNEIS
# UniProt P00883: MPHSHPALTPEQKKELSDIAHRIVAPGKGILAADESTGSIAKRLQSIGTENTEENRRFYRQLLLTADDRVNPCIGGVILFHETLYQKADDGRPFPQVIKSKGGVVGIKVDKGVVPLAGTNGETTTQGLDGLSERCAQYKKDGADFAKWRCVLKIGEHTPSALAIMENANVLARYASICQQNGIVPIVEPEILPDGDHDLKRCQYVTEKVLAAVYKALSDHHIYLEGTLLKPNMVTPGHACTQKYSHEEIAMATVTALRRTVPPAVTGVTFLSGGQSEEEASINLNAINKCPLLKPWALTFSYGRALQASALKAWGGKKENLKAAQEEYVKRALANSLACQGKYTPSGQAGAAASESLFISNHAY
# UniProt Q96QE3: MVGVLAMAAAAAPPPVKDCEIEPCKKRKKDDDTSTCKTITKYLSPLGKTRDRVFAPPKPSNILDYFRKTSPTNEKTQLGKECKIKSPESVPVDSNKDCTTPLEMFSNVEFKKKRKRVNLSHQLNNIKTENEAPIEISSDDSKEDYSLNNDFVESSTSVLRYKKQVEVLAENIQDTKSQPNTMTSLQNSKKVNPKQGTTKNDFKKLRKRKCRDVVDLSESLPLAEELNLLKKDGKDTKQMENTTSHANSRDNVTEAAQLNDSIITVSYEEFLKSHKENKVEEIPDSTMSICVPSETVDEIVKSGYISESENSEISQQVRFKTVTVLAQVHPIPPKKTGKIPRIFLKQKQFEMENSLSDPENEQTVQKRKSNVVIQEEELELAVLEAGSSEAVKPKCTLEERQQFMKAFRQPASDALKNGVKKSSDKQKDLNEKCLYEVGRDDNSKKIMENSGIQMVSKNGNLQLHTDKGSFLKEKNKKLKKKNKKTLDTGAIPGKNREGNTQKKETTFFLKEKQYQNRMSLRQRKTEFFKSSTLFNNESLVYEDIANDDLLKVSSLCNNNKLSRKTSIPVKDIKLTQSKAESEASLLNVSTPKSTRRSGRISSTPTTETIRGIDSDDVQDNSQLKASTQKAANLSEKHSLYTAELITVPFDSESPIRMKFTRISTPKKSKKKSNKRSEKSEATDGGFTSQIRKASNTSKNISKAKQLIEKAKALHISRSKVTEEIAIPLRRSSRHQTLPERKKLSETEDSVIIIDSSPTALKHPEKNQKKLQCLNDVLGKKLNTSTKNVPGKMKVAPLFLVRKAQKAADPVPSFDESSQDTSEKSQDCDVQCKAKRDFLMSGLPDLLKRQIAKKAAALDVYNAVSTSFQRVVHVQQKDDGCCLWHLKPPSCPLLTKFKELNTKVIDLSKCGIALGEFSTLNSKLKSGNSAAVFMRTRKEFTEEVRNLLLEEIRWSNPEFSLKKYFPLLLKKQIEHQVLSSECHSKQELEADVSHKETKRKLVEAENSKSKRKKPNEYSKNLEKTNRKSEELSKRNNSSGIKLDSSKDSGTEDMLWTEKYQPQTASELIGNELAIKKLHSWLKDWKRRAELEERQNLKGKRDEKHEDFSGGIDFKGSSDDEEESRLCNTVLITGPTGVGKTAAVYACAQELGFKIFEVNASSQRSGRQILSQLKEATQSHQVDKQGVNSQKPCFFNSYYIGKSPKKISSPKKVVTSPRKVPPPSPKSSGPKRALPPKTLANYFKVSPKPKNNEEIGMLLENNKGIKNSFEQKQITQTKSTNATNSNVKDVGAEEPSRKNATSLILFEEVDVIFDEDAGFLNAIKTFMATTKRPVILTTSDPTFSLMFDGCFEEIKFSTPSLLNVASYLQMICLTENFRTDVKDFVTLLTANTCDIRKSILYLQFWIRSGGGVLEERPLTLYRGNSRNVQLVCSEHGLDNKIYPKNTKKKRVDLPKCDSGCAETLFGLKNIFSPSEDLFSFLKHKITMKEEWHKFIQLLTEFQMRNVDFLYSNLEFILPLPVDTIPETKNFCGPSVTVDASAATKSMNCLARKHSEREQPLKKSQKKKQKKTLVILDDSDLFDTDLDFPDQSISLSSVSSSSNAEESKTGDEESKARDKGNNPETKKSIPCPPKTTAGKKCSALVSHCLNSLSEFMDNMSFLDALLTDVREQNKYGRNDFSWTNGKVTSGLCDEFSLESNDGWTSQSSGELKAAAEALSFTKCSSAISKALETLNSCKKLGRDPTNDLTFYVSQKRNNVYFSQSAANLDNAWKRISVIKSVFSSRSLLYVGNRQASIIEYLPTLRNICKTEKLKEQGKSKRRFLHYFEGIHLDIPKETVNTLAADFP
# Inconclusive means that the source gave no clear call. Such entries were picked first, then a sample of the others. For some of these results: A potency beside an inconclusive call is a rough fit, not a confirmed value. The source made the active and inactive calls. Unless noted, calls come from the whole dose curve; as a rule, active = well fitted curve in the direction sought with a large enough effect; inconclusive = small, poorly fitted or top-dose-only effect, or another doubt; inactive = no such curve, though single readings can be large; an effect the other way counts as inactive or inconclusive.
# Assays:
# [1] = qHTS Assay for Inhibitors of Fructose-1,6-bisphosphate Aldolase from Giardia Lamblia: Giardia lamblia growth inhibition (AID 2785); conditions: Giardia lamblia trophozoite growth inhibition; activity change, negative = inhibition: at 57.5 µM (top of the series); note: nearly all actives have a fitted effect of over 70% in size; note: potency is the fitted concentration of half-maximal effect; for activity change, negative = inhibition: % is set by controls: 0 for no effect and ±100 for the full control effect
# Method in brief: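 G. lamblia WB trophozoites (100 cells/well) were grown with compound at 37C for 48 h in modified TYI-S-33 medium, pH 7.0. Growth was measured by ATPlite luminescence after 20 min at room temperature.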
# [2] = qHTS Assay for Inhibitors of Fructose-1,6-bisphosphate Aldolase from Giardia Lamblia: Mammalian cellular toxicity (AID 2786);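 note: compound exposure lasted 48 h before reading; nearly all actives have a fitted effect of over 60% in size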; note: potency is the fitted concentration of half-maximal effect
# Method in brief: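 CHO cells seeded at 250 cells/well with pin-tool-added compound, incubated 48 h at 37 °C, 5% CO2. Viability read as ATP content by ATPlite luminescence after 20 min.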
# [3] = target: Fructose-bisphosphate aldolase (Giardia intestinalis (strain ATCC 50803 / WB clone C6)) (UniProt A8B2U2); experiment: qHTS Assay for Inhibitors of Fructose-1,6-bisphosphate Aldolase from Giardia Lamblia: Primary screen confirmation (AID 2787);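 for activity change, negative = inhibition: aldolase product measured through coupled diaphorase step turning resazurin into fluorescent resorufin; % is set by controls: 0 for no effect and ±100 for the full control effect; nearly all actives have a fitted effect of over 45% in size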
# Method in brief: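 FBPA (40 nM in enzyme reagent, with 30 uM ZnCl2) was preincubated 10 min at RT with compound up to 57.5 uM final. Substrate plus coupled detection system was then added, and fluorescence (525/598 nm) was read after 20 min at RT.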
# [4] = qHTS for Inhibitors of the vitamin D receptor (VDR): Hit Validation using a Texas Red Assay (AID 602201); note: potency is the fitted concentration of half-maximal effect
# Method in brief: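 Fluorescence polarization with 1.5 uM VDR-LBD, LG19078 and 7 nM Texas Red (final). After 2 hours at ambient temperature, read at Ex 595 nm/Em 615 nm.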
# [5] = target: Vitamin D3 receptor (Homo sapiens) (UniProt P11473); experiment: qHTS for Inhibitors of the vitamin D receptor (VDR): Hit Validation using a Beta-Lactamase Assay (AID 602202); note: potency is the fitted concentration of half-maximal effect
# Method in brief: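 Stably transfected HEK293 cells expressing VDR-GAL4 DNA-binding domain fusion with UAS-driven beta-lactamase reporter, activated by agonist LG190178; compounds incubated 18 h, then FRET beta-lactam substrate 2 h; cleaved substrate read at 447 nm emission.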
# [6] = qHTS for Inhibitors of the vitamin D receptor (VDR): Hit Validation using a Cytotoxicity Assay (AID 602204);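 note: cells co-treated with VDR agonist LG190178 at 300 nM; potency is the fitted concentration of half-maximal effect; nearly all actives have a fitted effect of over 75% in size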
# Method in brief: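 Viability read-out: luminescent ATP quantification after 18 h compound exposure. Plated cells (20,000/well) had 4 h before dosing; reagent incubation 30 min. High-concentration cycloheximide marks full kill, DMSO no effect.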
# [7] = target: Fructose-bisphosphate aldolase A (Oryctolagus cuniculus) (UniProt P00883); experiment: qHTS Assay for Inhibitors of Fructose-1,6-bisphosphate Aldolase from Giardia Lamblia: Rabbit FBPA Selectivity (AID 2794)
# Method in brief: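 To triage Class I aldolase inhibitors, rabbit FBPA activity is followed through a glyceraldehyde-3-phosphate-linked enzyme cascade feeding AmpLite Red. Compounds (up to 57.5 uM final) sit 10 min with coupling enzymes before substrate; fluorescence is read 20 min later.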
# [8] = qHTS Assay for Inhibitors of Fructose-1,6-bisphosphate Aldolase from Giardia Lamblia: Coupling assay counterscreen confirmation (AID 2795)
# Method in brief: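 Readings at 525 nm excitation and 598 nm emission follow a two-step room-temperature protocol: 10 min of compound (up to 57.5 uM final) with coupling enzyme reagent, then 20 min with substrate and AmpLite Red detection reagent.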
# [9] = S16 Schwann cell PMP22 intronic element firefly luciferase assay (AID 624032); note: potency is the fitted concentration of half-maximal effect; nearly all actives have a fitted effect of over 30% in size
# Method in brief: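 Rat S16 Schwann cells stably carrying firefly luciferase driven by a PMP22 intronic element, in 10% FBS, treated 24 h at 37 C. ONE-Glo luminescence normalized to PTC124 control and DMSO (0%); curves classed by r2, magnitude and activity.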
# [10] = target: ATPase family AAA domain-containing protein 5 (Homo sapiens) (UniProt Q96QE3); experiment: HTS assay for small molecules that inhibit ELG1-dependent DNA repair in human embryonic kidney (HEK293T) cells expressing luciferase-tagged ELG1: Hit Confirmation (AID 624248); note: potency is the fitted concentration of half-maximal effect; nearly all actives have a fitted effect of over 55% in size
# Method in brief: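 HEK293T cells expressing luciferase-tagged ELG1 treated with 5-fluorouridine plus compound for 16 h at 37 C; luciferase activity then measured with ONE-Glo after 30 min at room temperature.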
# [11] = target: ATPase family AAA domain-containing protein 5 (Homo sapiens) (UniProt Q96QE3); experiment: qHTS screen for small molecules that inhibit ELG1-dependent DNA repair in human embryonic kidney (HEK293T) cells expressing luciferase-tagged ELG1: Hit Confirmation using MMS Stimulated ELG1 (AID 624249); note: potency is the fitted concentration of half-maximal effect; nearly all actives have a fitted effect of over 60% in size
# Method in brief: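 Cells carrying luciferase-tagged ELG1 receive compound and DNA-damaging MMS (final concentration 10 µM) roughly five hours after seeding. Sixteen hours on, Amplight detects luciferase, and activity loss marks blocked ELG1 function.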
# [12] = qHTS screen for small molecules that inhibit ELG1-dependent DNA repair: Hit Confirmation with MMS Viability (AID 624251);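 note: potency is the fitted concentration of half-maximal effect; viability read 16 h after compound addition; nearly all actives have a fitted effect of over 60% in size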
# Method in brief: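 HEK293T ELG1-luc, 2,000 cells/well; cpd pin-transferred ~5 h post-seeding; MMS 10 µM final; 16 h; CellTiter-Glo viability.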
# [13] = qHTS profiling for inhibitors of Plasmodium falciparum proliferation (AID 504749); note: nearly all actives have a fitted effect of over 60% in size; note: potency is the fitted concentration of half-maximal effect;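 for activity, negative = inhibition: 0% = DMSO vehicle and full inhibition = artemisinin control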; conditions: P. falciparum in erythrocytes, SYBR Green DNA, 72 h; Potency: parasite line B unless noted
# Method in brief: (§1)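 SYBR Green fluorescence (ex 485 nm, em 535 nm) reports parasite DNA after 72 h compound exposure of infected red cells at 0.3% parasitemia, 2.5% hematocrit; signal normalized to 0.29 uM artemisinin and vehicle wells.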
# 7G8 = experiment: as above; conditions: P. falciparum in erythrocytes, SYBR Green DNA, 72 h
# Method in brief: as §1
# CP247 = experiment: as above; conditions: P. falciparum in erythrocytes, SYBR Green DNA, 72 h
# Method in brief: as §1
# CP262 = experiment: as above; conditions: P. falciparum in erythrocytes, SYBR Green DNA, 72 h
# Method in brief: as §1
# CP291 = experiment: as above; conditions: P. falciparum in erythrocytes, SYBR Green DNA, 72 h
# Method in brief: as §1
# CP315 = experiment: as above; conditions: P. falciparum in erythrocytes, SYBR Green DNA, 72 h
# Method in brief: as §1
# DIV30 = experiment: as above; conditions: P. falciparum in erythrocytes, SYBR Green DNA, 72 h
# Method in brief: as §1
# GB4 = experiment: as above; conditions: P. falciparum in erythrocytes, SYBR Green DNA, 72 h
# Method in brief: as §1
# PC26 = experiment: as above; conditions: P. falciparum in erythrocytes, SYBR Green DNA, 72 h; activity, negative = inhibition: at 28.7 µM (top of the series)
# Method in brief: as §1
# W2 = experiment: as above; conditions: P. falciparum in erythrocytes, SYBR Green DNA, 72 h
# Method in brief: as §1
# [14] = Stat Signaling Pathway (AID 446; active = well fitted curve in either direction with a large enough effect, not every such curve was filed as active; inconclusive = small, poorly fitted or top-dose-only effect, or another doubt;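 note: ME-180 cervical cancer cells given 40 pM IL-6 alongside compound; SIE-controlled beta-lactamase reporter measured as 460/530 nm FRET emission ratio; % is set by controls: 0 for no effect and ±100 for the full control effect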); conditions: ME-180 (cervical carcinoma) SIE beta-lactamase reporter, IL-6 stimulated, 5 h; at 7.69 µM (top of the series) unless noted
# Method in brief: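 Normalization used AC90 stimulation (300 pM IL-6) and AC90 inhibition (125 nM pan-JAK inhibitor at 40 pM IL-6). The underlying signal is SIE-driven beta-lactamase in ME-180 cells after 5 h IL-6 exposure with compound.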
structure (smiles),measurement,setting,value
CCOC(=O)C1=C(O)/C(=C/c2ccc(CNC(=O)C(=O)Nc3ccc(C)cc3)o2)N=C1C,"activity change, negative = inhibition",[1],inconclusive: 66.9% [activator]
same,Potency,[2],"inconclusive: 50.1 µM [inhibitor, single point]"
Nc1nc2c(s1)CCc1c-2cnn1-c1ccccc1,Potency,[1],"inconclusive: 100 µM [inhibitor, partial curve, poor fit]"
same,Potency,[2],"inconclusive: 50.1 µM [inhibitor, partial curve]"
same,Potency,[3],active: 12.6 µM
same,Potency,[4],"inconclusive: 39.8 µM [inhibitor, single point]"
same,Potency,[5],"inconclusive: 16.4 µM [inhibitor, single point]"
same,Potency,[6],"inconclusive: 33.6 µM [cytotoxic, single point]"
CN1CCC(NCCC(c2ccc(F)cc2)c2ccc(Cl)cc2)CC1 (stereo unspecified),Potency,[1],"inconclusive: 70.8 µM [inhibitor, single point]"
same,Potency,[2],active: 20 µM
same,Potency,[3],inactive
CN(C1=C(NC(=O)c2ccccc2)C(=O)c2ccccc2C1=O)C1CCS(=O)(=O)C1 (stereo unspecified),Potency,[1],active: 25.1 µM
same,Potency,[2],active: 39.8 µM
same,Potency,[3],"inconclusive: 3.98 µM [inhibitor, full curve]"
same,Potency,[7],"inconclusive: 31.6 µM [inhibitor, partial curve]"
same,Potency,[8],active: 6.31 µM
O=C(CCc1ccccc1)NNC(=O)c1ccccn1,Potency,[1],active: 11.2 µM
same,Potency,[2],"inconclusive: 50.1 µM [inhibitor, single point]"
O=S(=O)(/N=C(/NC(=S)Nc1ccccc1)c1ccccc1)c1ccc(Cl)cc1,Potency,[1],"inconclusive: 39.8 µM [inhibitor, single point]"
same,Potency,[2],inactive
OCC1OC(n2cnc3c(=S)nc[nH]c32)C(O)C1O (stereo unspecified),Potency,[1],"inconclusive: 39.8 µM [inhibitor, partial curve, poor fit]"
same,Potency,[2],active: 6.31 µM
same,Potency,[3],inactive
same,Potency,[9],active: 2.87 µM
same,Potency,[10],"inconclusive: 17.7 nM [inhibitor, full curve]"
same,Potency,[11],"inconclusive: 3.54 µM [inhibitor, full curve]"
same,Potency,[12],"inconclusive: 15.8 µM [cytotoxic, partial curve]"
same,Potency,[13],"inconclusive: 10 µM [inhibitor, single point]"
same,Potency,7G8,"inconclusive: 15.8 µM [inhibitor, single point]"
same,Potency,CP247,inactive
same,Potency,CP262,inactive
same,Potency,CP291,inactive
same,Potency,CP315,inactive
same,Potency,DIV30,inactive
same,Potency,GB4,"inconclusive: 13.5 µM [inhibitor, single point]"
same,Potency,PC26,inactive
same,Potency,W2,"inconclusive: 1.2 µM [inhibitor, partial curve]"
Cc1ccccc1-c1nc2ccccc2c(=O)n1/N=C/c1ccccc1[N+](=O)[O-],Potency,[1],active: 10 µM
same,Potency,[2],"inconclusive: 50.1 µM [inhibitor, partial curve, poor fit]"
same,Potency,[3],"inconclusive: 31.6 µM [inhibitor, partial curve]"
same,Potency,[7],"inconclusive: 100 µM [inhibitor, partial curve]"
same,Potency,[8],active: 35.5 µM
O=[N+]([O-])c1cc(C(F)(F)F)cc([N+](=O)[O-])c1Sc1n[nH]c(C(F)(F)F)n1,Potency,[1],"inconclusive: 39.8 µM [inhibitor, single point]"
same,Potency,[3],inactive
CC(C(Sc1ccccc1N)c1ccccc1)[N+](=O)[O-] (stereo unspecified),Potency,[1],"inconclusive: 31.6 µM [inhibitor, single point]"
same,Potency,[2],active: 31.6 µM
same,Potency,[7],inactive
COCc1cc(=O)[nH]c(Nc2nc3ccccc3o2)n1,"activity, negative = inhibition",[14],inactive: 1.07% [at 17.2 µM]
same,Potency,[1],inactive
same,Potency,[2],"inconclusive: 39.8 µM [inhibitor, partial curve]"
same,Potency,[8],"inconclusive: 100 µM [inhibitor, single point]"
O=C(CNCc1cccnc1)Nc1cc(C(F)(F)F)ccc1N1CCOCC1,"activity change, negative = inhibition",[1],inconclusive: 58.6% [activator]
same,Potency,[3],inactive
CC(=O)C(C(C)=O)c1c(Cl)c(O)c(O)c2c(C(=O)c3ccccc3)coc12,Potency,[1],inactive
same,Potency,[3],"inconclusive: 22.4 µM [inhibitor, partial curve]"
Cc1c(C#N)c(O)n(CCO)c(=O)c1N=Nc1ccc2c(c1)COC2=O,Potency,[1],"inconclusive: 224 µM [inhibitor, partial curve]"
same,Potency,[3],"inconclusive: 25.1 µM [inhibitor, partial curve]"
N#Cc1ccccc1NC(=S)NC(=O)c1cccs1,Potency,[1],"inconclusive: 100 µM [inhibitor, partial curve, poor fit]"
same,Potency,[3],"inconclusive: 10 µM [inhibitor, full curve]"
same,Potency,[7],"inconclusive: 158 µM [inhibitor, partial curve]"
same,Potency,[8],"inconclusive: 11.2 µM [inhibitor, full curve, poor fit]"

# Retrieved one by one from the list above:
structure (smiles),measurement,setting,value
COCc1cc(=O)[nH]c(Nc2nc3ccccc3o2)n1,Potency,[8],"inconclusive: 100 µM [inhibitor, single point]"
Nc1nc2c(s1)CCc1c-2cnn1-c1ccccc1,Potency,[5],"inconclusive: 16.4 µM [inhibitor, single point]"
OCC1OC(n2cnc3c(=S)nc[nH]c32)C(O)C1O (stereo unspecified),Potency,[12],"inconclusive: 15.8 µM [cytotoxic, partial curve]"
same,Potency,CP315,inactive
same,Potency,[2],active: 6.31 µM
